Reference: paper PMC3639266
These are yes or no findings as the source states them, for the method shown. Some binding calls cover weakened binding; strength is not graded here.

The chains behind the UniProt entries cited, without tags or fusion partners.
UniProt P84077: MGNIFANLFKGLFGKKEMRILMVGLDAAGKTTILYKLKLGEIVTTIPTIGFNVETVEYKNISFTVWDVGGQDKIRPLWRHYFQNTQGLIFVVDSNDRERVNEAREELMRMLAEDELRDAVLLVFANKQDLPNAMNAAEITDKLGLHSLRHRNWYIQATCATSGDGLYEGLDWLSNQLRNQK

What was measured:
[1] = biological target: Arf1 (UniProt P84077); test: confocal fluorescence microscopy of GUVs and kinesin-pulled membrane tubes; Golgi-mix GUVs and tube networks incubated with 1 to 3 µM Arfaptin2-Alexa^488 and 1 to 3 µM Arf1 bound to GTPγS (or GDP as control); Arfaptin2 fluorescence on membranes; both purified
[2] = biological target: myristoylated Arf1 tagged with hexa-histidine (UniProt P84077); test: FRET or BRET; FRET between Arfaptin2-Alexa^488 (0.5 µM) and TRITC-DHPE (1 mol%) in Golgi-mix LUVs (0.5 mM) with 0.5 µM myr-Arf1-H6, HKM buffer, cuvette; GTP 0.1 mM, EDTA 2 mM, MgCl2 2 mM, then ArfGAP1 10 nM added in turn; the signal reports Arfaptin2 on the membrane after Arf1 activation and reverses after ArfGAP1; both purified
[3] = biological target: Arf1 (UniProt P84077); test: liposome flotation on sucrose gradient; Proteins 0.75 µM each and Golgi-mix LUVs 0.75 mM lipids (extruded 200, 100, 50, 30 nm) in HKM buffer, room temperature, 20 min; Arf1 loaded with GTP (or GDP as control); top and bottom fractions analysed by SDS-PAGE (Alexa^488 fluorescence, Sypro orange); both purified

Measured: binding

B1: Arfaptin2 labelled with Alexa^488 (protein, UniProt P53365 1-341)
chain: MTDGILGKAATMEIPIHGNGEARQLPEDDGLEQDLQQVMVSGPNLNETSIVSGGYGGSGDGLIPTGSGRHPSHSTTPSGPGDEVARGIAGEKFDIVKKWGINTYKCTKQLLSERFGRGSRTVDLELELQIELLRETKRKYESVLQLGRALTAHLYSLLQTQHALGDAFADLSQKSPELQEEFGYNAETQKLLCKNGETLLGAVNFFVSSINTLVTKTMEDTLMTVKQYEAARLEYDAYRTDLEELSLGPRDAGTRGRLESAQATFQAHRDKYEKLRGDVAIKLKFLEENKIKVMHKQLLLFHNAVSAYFAGNQKQLEQTLQQFNIKLRPPGAEKPSWLEEQ
modifications: Alexa^488 label (Alexa^488-C5-Maleimide), dye/protein ratio around 2
binds: all assays above
